PubChem BioAssay AID720505 – Drosophila RNAi Screening Center | 2013
In all, the deposit lists about 20,000 reagents; shown is an unselected part of those that have a named target and a result. In the full data, about 2,100 (10%) were called active. 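Raw plate signals without normalisation; calls rest on control-based scores that were not deposited; replicate 2 separates called from uncalled poorly.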 A plus sign joins genes that one reagent is predicted to hit. The record does not give: the amount of reagent, the time to read-out.

Assay: 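Genes needed for store-operated calcium entry in fly cells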 (primary screen)
Cell system: Drosophila S2R+ cells
Knock-down reagent: long dsRNA against Drosophila genes
Treatment: thapsigargin (2 µM) in calcium-free buffer to empty internal stores, then 2 mM calcium added back
Detection: 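Stores emptied by 2 µM thapsigargin without calcium, then 2 mM calcium re-added; fluo-4 fluorescence followed by FLIPR in 384-well plates, per-well averaged endpoint, raw; two screen passes, some wells retested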
Direction: calcium signal and retest calcium signal: higher = more calcium entry after store depletion
Call rule: 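About 1500 genes called as lowering calcium entry, by varying amounts, judged against per-plate control wells with STIM1 as positive and Rho1 as negative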
Meaning of the calls: active = called as lowering calcium entry; inactive = not called

Target gene | dsRNA | calcium signal, replicate 1 | calcium signal, replicate 2 | retest calcium signal, replicate 1 | retest calcium signal, replicate 2 | call
Rpn12R | DRSC09842 | 95.1 | 204 | – | – | inactive
CG14797 | DRSC17955 | 105 | 128 | – | – | inactive
beta4GalNAcTB | DRSC14869 | 177 | 135 | – | – | inactive
CG8405 | DRSC05599 | 44.3 | 96.5 | – | – | active
CG8405 | DRSC07166 | 129 | 102 | – | – | inactive
vkg | DRSC03632 | 161 | 114 | – | – | inactive
Cep135 | DRSC10244 | 121 | 101 | – | – | inactive
CrebA | DRSC11122 | 117 | 72.7 | – | – | inactive
CG33107 | DRSC21898 | 76.7 | 212 | – | – | inactive
mura | DRSC16483 | 135 | 90 | – | – | inactive
mura | DRSC16484 | 71.3 | 85 | – | – | active
mura | DRSC23145 | 128 | 183 | – | – | inactive
BicC | DRSC02005 | 122 | 137 | – | – | inactive
LKRSDH | DRSC03015 | 115 | 181 | – | – | inactive
beat-IIIb | DRSC02435 | 113 | 127 | – | – | inactive
loopin-1 | DRSC06888 | 190 | 108 | – | – | inactive
CG9676 | DRSC20204 | 92.5 | 115 | – | – | inactive
foxo | DRSC13017 | – | – | – | – | active
foxo | DRSC15463 | 88.6 | 103 | – | – | inactive
CG5885 | DRSC02910 | 129 | 99.5 | – | – | inactive
CG42375 + CG9288 | DRSC16468 | 67.1 | 101 | – | – | active
Cyp4s3 | DRSC20241 | 95.1 | 93.4 | – | – | inactive
Cyp4s3 | DRSC22340 | 109 | 179 | – | – | inactive
dib | DRSC08711 | 94.7 | 129 | – | – | inactive
Det | DRSC14489 | 159 | 173 | – | – | inactive
CG5346 | DRSC15778 | 161 | 199 | – | – | inactive
CG4452 | DRSC10422 | 83.9 | 123 | – | – | inactive
CG2926 | DRSC12321 | 89 | 115 | – | – | inactive
Tektin-A | DRSC01921 | 69.9 | 95.9 | – | – | active
ImpE2 | DRSC08665 | 96.4 | 87.3 | – | – | inactive
janA | DRSC16972 | 85.1 | 202 | – | – | active
Prp19 | DRSC07434 | 153 | 195 | – | – | inactive
CG11839 | DRSC14398 | 268 | 143 | – | – | inactive
CG6136 | DRSC15975 | 97 | 105 | – | – | inactive
CG32269 + CG32270 | DRSC08195 | 61.6 | 105 | – | – | inactive
Syb | DRSC07559 | 150 | 220 | – | – | inactive
BEAF-32 | DRSC05927 | 135 | 106 | – | – | inactive
CG3270 | DRSC04988 | 133 | 104 | – | – | inactive
Phf5a | DRSC03261 | 93.3 | 93.8 | – | – | inactive
XNP | DRSC15594 | 65.9 | 91 | – | – | active
mRpL4 | DRSC03562 | 106 | 89.8 | – | – | inactive
CG15333 | DRSC18016 | 177 | 116 | – | – | inactive
CG15333 | DRSC18153 | 179 | 134 | – | – | inactive
CG4822 | DRSC00669 | 72.7 | 121 | – | – | inactive
CG15570 | DRSC18058 | 166 | 121 | – | – | inactive
GstO1 | DRSC10688 | 64.7 | 46.4 | – | – | active
CG30379 | DRSC05070 | 99.4 | 133 | – | – | inactive
Drat | DRSC06600 | 170 | 106 | – | – | inactive
lmgA + lmgB | DRSC03566 | 198 | 136 | – | – | inactive
gbb | DRSC04687 | 99.5 | 196 | – | – | inactive
Nup205 | DRSC19432 | 112 | 96.2 | – | – | inactive
Scm | DRSC16853 | 115 | 105 | – | – | inactive
CG14546 | DRSC14890 | 275 | 167 | – | – | inactive
side-II | DRSC01427 | 173 | 108 | – | – | inactive
side-II | DRSC01429 | 166 | 88.4 | – | – | inactive
side-II | DRSC01913 | 114 | 93 | – | – | inactive
side-II | DRSC01932 | 116 | 125 | 104 | 130 | inactive
side-II | DRSC02480 | 91.9 | 155 | 82.7 | 75.2 | inactive
side-II | DRSC22508 | 69.3 | 174 | – | – | inactive
CG5687 | DRSC08568 | 115 | 99.9 | – | – | inactive
CG10097 + CG10096 | DRSC14189 | 139 | 161 | – | – | inactive
CG10097 + CG10096 | DRSC14190 | 145 | 117 | – | – | inactive
ATPsynC | DRSC15236 | 56.7 | 44 | – | – | active
ArgRS-m | DRSC14186 | 91.9 | 184 | 7525 | 132 | inactive
CG11279 | DRSC09837 | 78.9 | 128 | – | – | inactive
CG42450 | DRSC20022 | 101 | 87.2 | – | – | inactive
CG42450 | DRSC22751 | 115 | 203 | – | – | inactive
inaF-A | DRSC19660 | 104 | 81.2 | – | – | inactive
ds | DRSC00815 | 139 | 138 | – | – | inactive
Rab40 | DRSC19820 | 61.5 | 106 | – | – | active
mRpL3 | DRSC20100 | 80 | 149 | – | – | inactive
bel | DRSC16555 | 148 | 172 | – | – | inactive
Arp6 | DRSC19326 | 138 | 111 | – | – | inactive
CG3408 | DRSC10360 | 37.6 | 110 | – | – | active
Jon25Biii | DRSC03115 | 125 | 108 | – | – | inactive
Atf3 | DRSC17225 | 110 | 137 | – | – | inactive
Atf3 | DRSC22996 | 116 | 125 | – | – | inactive
Syn1 + CG7370 | DRSC22768 | 163 | 220 | – | – | inactive
sac | DRSC12237 | 111 | 247 | – | – | inactive
CG3526 | DRSC18636 | 104 | 176 | – | – | inactive
nebu | DRSC09807 | 134 | 77.4 | – | – | inactive
nebu | DRSC09808 | 68.3 | 101 | – | – | inactive
PIG-K | DRSC18496 | 102 | 117 | – | – | inactive
CG6443 | DRSC02958 | 54.3 | 81.3 | – | – | active
CG3862 | DRSC00631 | 142 | 161 | – | – | inactive
CG42694 | DRSC03955 | 92.6 | 7738 | – | – | inactive
CG1910 | DRSC15400 | 99.9 | 118 | – | – | inactive
Tret1-1 | DRSC07046 | 102 | 160 | – | – | inactive
Tret1-1 | DRSC07048 | 97.2 | 208 | – | – | inactive
mdu | DRSC19860 | 62.3 | 88.5 | – | – | active
mdu | DRSC23192 | 123 | 162 | – | – | inactive
dnk | DRSC16933 | 164 | 102 | – | – | inactive
Tango8 | DRSC06474 | 168 | 182 | 109 | 103 | inactive
Ccdc58 + CG34116 | DRSC10105 | 121 | 116 | – | – | inactive
REPTOR-BP | DRSC02683 | 145 | 154 | – | – | inactive
CG14689 | DRSC14912 | 121 | 101 | – | – | inactive
Mitofilin | DRSC16742 | 129 | 181 | – | – | inactive
CG5056 | DRSC02808 | 182 | 146 | – | – | inactive
Rab9Db + Rab9Fa | DRSC18445 | 86.9 | 112 | – | – | inactive
Pgm2a | DRSC07068 | 155 | 123 | – | – | inactive
CG12994 | DRSC19192 | 97.2 | 93.2 | – | – | inactive
CG12994 | DRSC19514 | 72.5 | 134 | – | – | active
Yeti | DRSC21138 | 107 | 125 | – | – | inactive
PEK | DRSC12361 | 85.3 | 125 | – | – | inactive
Hex-C | DRSC07079 | 110 | 195 | – | – | inactive
beta-PheRS | DRSC15859 | 129 | 374 | – | – | inactive

7 entries from above, set out differently.
GstO1 [DRSC10688] | calcium signal, replicate 1 = 64.7; calcium signal, replicate 2 = 46.4; call = active
CG30379 [DRSC05070] | calcium signal, replicate 1 = 99.4; calcium signal, replicate 2 = 133; call = inactive
Drat [DRSC06600] | calcium signal, replicate 1 = 170; calcium signal, replicate 2 = 106; call = inactive
lmgA + lmgB [DRSC03566] | calcium signal, replicate 1 = 198; calcium signal, replicate 2 = 136; call = inactive
gbb [DRSC04687] | calcium signal, replicate 1 = 99.5; calcium signal, replicate 2 = 196; call = inactive
Nup205 [DRSC19432] | calcium signal, replicate 1 = 112; calcium signal, replicate 2 = 96.2; call = inactive
Scm [DRSC16853] | calcium signal, replicate 1 = 115; calcium signal, replicate 2 = 105; call = inactive
